# Some peptides are written in HELM: one residue between dots, names in brackets for other building blocks, links after the first $.
# Test: Fmoc solid-phase peptide synthesis; PepSyn-KA pre-derivatised with the FMOC C-terminal amino acid; 4-(2',4'-dimethoxyphenyl-Fmoc-aminomethyl)phenoxy resin; pre-formed Fmoc-amino acid Pfp esters / dihydroxybenzotriazole esters; DIC/HOBt
# Conditions: whole synthesis, reverse-phase HPLC on Dynamax C8 300A analytical column, scale 0.5 mmol
substance,measurement,value
PEPTIDE1{[ac].Q.A.T.N.R.N.T.D.G.S.T.D.Y.G.I.L.Q.I.N.S.R.[am]}$$$$V2.0,final HPLC purity,>99%

# — patent US20020132974A1 (priority 1995, published 2002)
